Measurements: publication PMC10199885
No constants are given. Whether binding was seen depends on the method and setting. Binding seen in cells or lysates may run through a third protein. Some binding calls cover weakened binding; strength is not graded here.

Protein sequences, listed by entry. Tags and fused reporters are not part of them. Residues count along the entry.
UniProt Q10589, residues 1-161: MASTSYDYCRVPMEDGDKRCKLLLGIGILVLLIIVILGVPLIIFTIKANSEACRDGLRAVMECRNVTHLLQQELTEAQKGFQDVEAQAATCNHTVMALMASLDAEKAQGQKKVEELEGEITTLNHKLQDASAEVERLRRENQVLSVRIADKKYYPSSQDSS

What was measured:
[1] = biological target: HA-CD317 (expressed in HeLa cells) (human) (UniProt Q10589); test: co-IP; lysates of HA-CD317-transfected HeLa cells, IP with anti-HA on protein-A/G Dynabeads; IP buffer 150 mM NaCl, 50 mM Tris-HCl pH 7.4, 50 mM EDTA, 1.0% Nonidet P-40; blot with CD317 and CNX mAbs
[2] = biological target: endogenous CD317 (Jurkat cells) (human (endogenous in Jurkat)) (UniProt Q10589); test: co-IP; Jurkat cells treated 6 h with or without 100 nM BAF, IP of endogenous CD317 (anti-CD317), blot for CNX

B1: endogenous CNX (HeLa cells) (protein, UniProt P27824 21-592)
chain: HDGHDDDVIDIEDDLDDVIEEVEDSKPDTTAPPSSPKVTYKAPVPTGEVYFADSFDRGTLSGWILSKAKKDDTDDEIAKYDGKWEVEEMKESKLPGDKGLVLMSRAKHHAISAKLNKPFLFDTKPLIVQYEVNFQNGIECGGAYVKLLSKTPELNLDQFHDKTPYTIMFGPDKCGEDYKLHFIFRHKNPKTGIYEEKHAKRPDADLKTYFTDKKTHLYTLILNPDNSFEILVDQSVVNSGNLLNDMTPPVNPSREIEDPEDRKPEDWDERPKIPDPEAVKPDDWDEDAPAKIPDEEATKPEGWLDDEPEYVPDPDAEKPEDWDEDMDGEWEAPQIANPRCESAPGCGVWQRPVIDNPNYKGKWKPPMIDNPSYQGIWKPRKIPNPDFFEDLEPFRMTPFSAIGLELWSMTSDIFFDNFIICADRRIVDDWANDGWGLKKAADGAAEPGVVGQMIEAAEERPWLWVVYILTVALPVFLVILFCCSGKKQTSGMEYKKTDAPQPDVKEEEEEKEEEKDKGDEEEEGEEKLEEKQKSDAEEDGGTVSQEEEDRKPKAEEDEILNRSPRNRKPRRE
binding [1]: binds

B2: CNX (Jurkat cells) (protein, UniProt P27824 21-592)
chain: B1 chain
binding [2]: binds
